Laboratory results as given in US11752211B2 (NOVARTIS AG, priority 2014, dated 2023).

Assay: general procedure: Fmoc solid-phase peptide synthesis; 2-chlorotrityl chloride resin; Phenethylamine-AMEBA resin; HATU/DIEA
Details: late stage modification step, TFA salt; acetate

With “pE-R—P—R-L-C*—H—N—[[(1α,8α,9α)-bicyclo[6.1.0]non-4-yn-9-ylmethoxy]carbonyl]-K-G-P-Nle-C*—F—OH(Disulfide C^6-C^12)” the step yield was 61%.
